Drawing on ChEMBL document CHEMBL1153021, “Phenylphenalenones from the Australian plant Haemodorum simplex” (J Nat Prod, 2009), this text covers inhibition zone (IZ) for two sequences.

Holding throughout (assay type): functional, organism-based
The subject of one experiment is Escherichia coli. Put plainly: Antibacterial activity against Escherichia coli ATCC 25922 at 10 ug.
The subject of the next experiment is Pseudomonas aeruginosa. The experiment in a line: Antimicrobial activity against Pseudomonas aeruginosa ATCC 27853 at 10 ug.
Another experiment has as its system Candida albicans. The experiment in a line: Antifungal activity against Candida albicans ATCC 14053 at 100 IU.

On to GENTAMICIN, for which the inhibition zone (IZ) with Escherichia coli and in the experiment on Pseudomonas aeruginosa was 10 mm in each case.

In the case of NYSTATIN, the inhibition zone (IZ) with Candida albicans was 12 mm.
